Measurements from PMC4476799, “Englerin A Agonizes the TRPC4/C5 Cation Channels to Inhibit Tumor Cell Line Proliferation” (PLoS ONE, 2015).
Further values from the same series stand in other lists.

System: cancer cell lines from the cancer cell line encyclopedia (CCLE)
Assay: Cell line profiling (CLiP) proliferation experiment
Type: cell-based
Design: ACTIVITY_AREA: scale not given here; AMAX: unit not given here
Method: Compound profiling experiment and data analysis was performed as previously described. Data was imported and plotted using the Tibco Spotfire DXP application. Lines were categorized as sensitive, intermediate and refractory as follows: Amax<-40 & Inflection Point <2 ~ Sensitive, Amax>-20 & Inflection Point >10 ~ Refractory, all else were called Intermediate. Cancer Cell line HG-U133 Plus 2 data was processed and normalized as described. […] Five sets of refractory cell lines were generated from the pool of refractory cell lines trying to match the lineage composition of the set of sensitive cell lines. The limma package was used as previously described to perform the statistical comparison.

[1] = Calu-1, lung, squamous_cell_carcinoma
[2] = EOL-1 (haematopoietic_and_lymphoid_tissue)
[3] = FaDu (upper_aerodigestive_tract)
[4] = Ishikawa (Heraklio) 02 ER- cells

CC(C)[C@@]12C[C@@H](O)[C@@](C)(O1)[C@@H]1CC[C@@H](C)[C@H]1[C@@H]2OC(=O)/C=C/c1ccccc1 [Englerin B]
AMAX (COR-L23 (lung)): -39.64
RESPONSE (COR-L23 (lung)): INTERMEDIATE
ACTIVITY_AREA (COR-L47 cells): 92.1
AMAX (COR-L47 cells): -15.76
RESPONSE (COR-L47 cells): REFRACTORY
ACTIVITY_AREA (COR-L88 (lung)): 20.83
AMAX (COR-L88 (lung)): -31.56
RESPONSE (COR-L88 (lung)): INTERMEDIATE
ACTIVITY_AREA (COR-L279 (lung)): 130.29
AMAX (COR-L279 (lung)): -86.84
RESPONSE (COR-L279 (lung)): INTERMEDIATE
ACTIVITY_AREA (COV318 (ovary)): 39.59
AMAX (COV318 (ovary)): -54.13
RESPONSE (COV318 (ovary)): INTERMEDIATE
ACTIVITY_AREA (COV644 cells): 35.24
AMAX (COV644 cells): -28.86
RESPONSE (COV644 cells): INTERMEDIATE
ACTIVITY_AREA (Caki-1 (kidney)): 27.97
AMAX (Caki-1 (kidney)): -31.84
RESPONSE (Caki-1 (kidney)): INTERMEDIATE
ACTIVITY_AREA (Caki-2 (kidney)): 52.8
AMAX (Caki-2 (kidney)): -38.65
RESPONSE (Caki-2 (kidney)): INTERMEDIATE
ACTIVITY_AREA [1]: 52.11
AMAX [1]: -42.82
RESPONSE [1]: INTERMEDIATE
ACTIVITY_AREA (Calu-3 (lung)): 19.78
AMAX (Calu-3 (lung)): 4.65
RESPONSE (Calu-3 (lung)): REFRACTORY
ACTIVITY_AREA (Calu-6 cells): 28.42
AMAX (Calu-6 cells): -47.13
RESPONSE (Calu-6 cells): INTERMEDIATE
ACTIVITY_AREA (Capan-1 (pancreas)): 29.63
AMAX (Capan-1 (pancreas)): -25.75
RESPONSE (Capan-1 (pancreas)): INTERMEDIATE
ACTIVITY_AREA (DAN-G cells): 26.93
AMAX (DAN-G cells): -50.77
RESPONSE (DAN-G cells): INTERMEDIATE
ACTIVITY_AREA (DK-MG (central_nervous_system)): 33.27
AMAX (DK-MG (central_nervous_system)): -67.8
RESPONSE (DK-MG (central_nervous_system)): INTERMEDIATE
ACTIVITY_AREA (DMS 79 (lung)): 49.26
AMAX (DMS 79 (lung)): -10.4
RESPONSE (DMS 79 (lung)): REFRACTORY
ACTIVITY_AREA (DMS 273 (lung)): 29.68
AMAX (DMS 273 (lung)): -73.92
RESPONSE (DMS 273 (lung)): INTERMEDIATE
ACTIVITY_AREA (Daoy (central_nervous_system)): 43
AMAX (Daoy (central_nervous_system)): -39.21
RESPONSE (Daoy (central_nervous_system)): INTERMEDIATE
ACTIVITY_AREA (EBC-1 (lung)): 56.14
AMAX (EBC-1 (lung)): -53.25
RESPONSE (EBC-1 (lung)): INTERMEDIATE
ACTIVITY_AREA [2]: 60.59
AMAX [2]: -94.78
RESPONSE [2]: INTERMEDIATE
ACTIVITY_AREA [3]: 21.14
AMAX [3]: -61.31
RESPONSE [3]: INTERMEDIATE
ACTIVITY_AREA (G-402 (soft_tissue)): 90.01
AMAX (G-402 (soft_tissue)): -70.25
RESPONSE (G-402 (soft_tissue)): INTERMEDIATE
ACTIVITY_AREA (GAMG (central_nervous_system)): 50.48
AMAX (GAMG (central_nervous_system)): -45.21
RESPONSE (GAMG (central_nervous_system)): INTERMEDIATE
ACTIVITY_AREA (Hs 940.T cells): 53.93
AMAX (Hs 940.T cells): -48.14
RESPONSE (Hs 940.T cells): INTERMEDIATE
ACTIVITY_AREA (IGR-1 cells): 22.7
AMAX (IGR-1 cells): 1.27
RESPONSE (IGR-1 cells): REFRACTORY
ACTIVITY_AREA (IGROV1 cells): 38.35
AMAX (IGROV1 cells): -25.23
RESPONSE (IGROV1 cells): INTERMEDIATE
ACTIVITY_AREA (IMR-32): 27.44
RESPONSE (IMR-32): INTERMEDIATE
ACTIVITY_AREA (IMR-32 cells): 27.44
AMAX (IMR-32 cells): -58.42
RESPONSE (IMR-32 cells): INTERMEDIATE
ACTIVITY_AREA (IPC-298): 31.6
AMAX (IPC-298): -31.36
RESPONSE (IPC-298): INTERMEDIATE
ACTIVITY_AREA (Ishikawa (Heraklio) 02 ER-): 61.49
AMAX (Ishikawa (Heraklio) 02 ER-): -30.52
RESPONSE (Ishikawa (Heraklio) 02 ER-): INTERMEDIATE
ACTIVITY_AREA [4]: 61.49
AMAX [4]: -30.52
RESPONSE [4]: INTERMEDIATE
ACTIVITY_AREA (J82): 6.63
AMAX (J82): -28.14
RESPONSE (J82): INTERMEDIATE
ACTIVITY_AREA (JHH-2): 49.18
AMAX (JHH-2): -46.72
RESPONSE (JHH-2): INTERMEDIATE
ACTIVITY_AREA (JHH-5): 87.62
AMAX (JHH-5): -77.22
RESPONSE (JHH-5): INTERMEDIATE
ACTIVITY_AREA (JHH-5 cells): 87.62
AMAX (JHH-5 cells): -77.22
RESPONSE (JHH-5 cells): INTERMEDIATE
ACTIVITY_AREA (JHH-7): 83.45
AMAX (JHH-7): -63.4
RESPONSE (JHH-7): INTERMEDIATE
ACTIVITY_AREA (JHH-7 cells): 83.45
AMAX (JHH-7 cells): -63.4
RESPONSE (JHH-7 cells): INTERMEDIATE
ACTIVITY_AREA (JHOM-1): 17.33
AMAX (JHOM-1): -51.79
RESPONSE (JHOM-1): INTERMEDIATE
ACTIVITY_AREA (JHUEM-2): 66.85
AMAX (JHUEM-2): -64.47
RESPONSE (JHUEM-2): INTERMEDIATE
ACTIVITY_AREA (JHUEM-2 cells): 66.85
AMAX (JHUEM-2 cells): -64.47
RESPONSE (JHUEM-2 cells): INTERMEDIATE
ACTIVITY_AREA (JIMT-1): 104.64
AMAX (JIMT-1): -45.73
RESPONSE (JIMT-1): INTERMEDIATE
ACTIVITY_AREA (JIMT-1 cells): 104.64
AMAX (JIMT-1 cells): -45.73
RESPONSE (JIMT-1 cells): INTERMEDIATE
ACTIVITY_AREA (JJN-3): 16.87
AMAX (JJN-3): -1.17
RESPONSE (JJN-3): REFRACTORY
ACTIVITY_AREA (JURKAT): 72.2
AMAX (JURKAT): -83.41
RESPONSE (JURKAT): INTERMEDIATE
ACTIVITY_AREA (JVM-2): 24.94
AMAX (JVM-2): -71.84
RESPONSE (JVM-2): INTERMEDIATE
ACTIVITY_AREA (JVM-2 cells): 24.94
AMAX (JVM-2 cells): -71.84
RESPONSE (JVM-2 cells): INTERMEDIATE
ACTIVITY_AREA (JVM-3): 18.3
AMAX (JVM-3): 3.55
RESPONSE (JVM-3): REFRACTORY
ACTIVITY_AREA (JeKo-1): 56.66
AMAX (JeKo-1): -89.85
RESPONSE (JeKo-1): INTERMEDIATE
ACTIVITY_AREA (JeKo-1 cells): 56.66
AMAX (JeKo-1 cells): -89.85
RESPONSE (JeKo-1 cells): INTERMEDIATE
ACTIVITY_AREA (K029AX): 17.85
AMAX (K029AX): -36.4
RESPONSE (K029AX): INTERMEDIATE
ACTIVITY_AREA (K029AX (skin)): 17.85
AMAX (K029AX (skin)): -36.4
RESPONSE (K029AX (skin)): INTERMEDIATE
ACTIVITY_AREA (K-562): 49.17
AMAX (K-562): -49.05
RESPONSE (K-562): INTERMEDIATE
ACTIVITY_AREA (KARPAS-299): 51.51
AMAX (KARPAS-299): -86.39
RESPONSE (KARPAS-299): INTERMEDIATE
ACTIVITY_AREA (KARPAS-422): 82.39
AMAX (KARPAS-422): -81.82
RESPONSE (KARPAS-422): INTERMEDIATE
ACTIVITY_AREA (KARPAS-422 cells): 82.39
AMAX (KARPAS-422 cells): -81.82
RESPONSE (KARPAS-422 cells): INTERMEDIATE
ACTIVITY_AREA (KARPAS-620): 32.66
RESPONSE (KARPAS-620): INTERMEDIATE
ACTIVITY_AREA (KASUMI-2): 22.15
AMAX (KASUMI-2): -57.05
RESPONSE (KASUMI-2): INTERMEDIATE
ACTIVITY_AREA (KASUMI-2 cells): 22.15
AMAX (KASUMI-2 cells): -57.05
RESPONSE (KASUMI-2 cells): INTERMEDIATE
ACTIVITY_AREA (KATO III): 50.08
AMAX (KATO III): -60.06
RESPONSE (KATO III): INTERMEDIATE
ACTIVITY_AREA (KCL-22): 43.03
